Measured values published in patent US7659288B2, “5-aminoalkylpyrazole derivatives as pesticidal agents” (Merial Limited, priority 2004, dated 2010).
Some results were stated once for a whole list of compounds, not compound by compound.

Experiments:
[1] = tested on: Ctenocephalides felis (cat flea); assay: Method A: screening method to test systemicity against Ctenocephalides felis (artificial dog test, treated bovine blood); type: in vivo; settings: test concentration of 5 ppm or less; compound in bovine blood; 10 adults; assessment at 24 and 48 hours
[2] = tested on: Rhipicephalus sanguineus (brown dog tick); assay: Method C: screening method to test contact activity against Rhipicephalus sanguineus larvae (filter paper); type: in vivo; settings: test concentration of 100 ppm, larvae (L1), assessed 24 hours after application

`CCN(CC)CCNc1c([S+]([O-])C(F)(F)F)c(C#N)nn1-c1c(Cl)cc(C(F)(F)F)cc1Cl` (stereo not drawn) [Compound 2-50, 1-(2,6-Dichloro-4-trifluoromethylphenyl)-3-cyano-5-(2-diethylaminoethyl)amino-4-trifluoromethylsulfinylpyrazole] was tested, and the “control of Ctenocephalides felis” value [1] was “at least 90%”.
In the case of `N#Cc1nn(-c2c(Cl)cc(C(F)(F)F)cc2Cl)c(NCCCN)c1S(=O)(=O)C(F)(F)F` [Compound 4-03, 5-(3-Aminopropyl)amino-1-(2,6-dichloro-4-trifluoromethylphenyl)-3-cyano-4-trifluoromethylsulfonylpyrazole], the “control of Ctenocephalides felis” value [1] is reported as “at least 90%” and the “contact control of Rhipicephalus sanguineus” value [2] is reported as “at least 70%”.
